Data source: PubChem BioAssay AID1259308 (NCATS, 2017)
Shown is a random part of about 59,000 deposited reagents. About 1,510 of them (2.6%) count as active. 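Calls use total luciferase alone and ignore viability, so some active siRNAs may act by altering cell number.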 Reagents against one gene are numbered here.

- Assay: 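Genes whose loss raises luciferase production in HEK293 cells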 (primary screen)
- System: human HEK293 embryonic kidney cells stably expressing firefly luciferase (HEK-CMV-Luc2-Hygro)
- Reagent: single siRNA against human genes, 0.8 pmol siRNA per well
- Time to read-out: 72 h
- Detection: 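Luciferase light (ONE-Glo) measured on one replicate plate set and viability (CellTiter-Glo) on the other, scaled to a negative control siRNA, with robust z-scores and luciferase per cell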
- Reading the numbers: total luciferase, z-score and total luciferase, % of control: higher = more reporter protein produced; luciferase per cell, z-score: higher = more reporter output per viable cell; viable cells, % of control: higher = more viable cells
- Hit rule: 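An siRNA counts as active if its total luciferase robust z-score exceeds 3; genes with two or more such siRNAs out of three were retested with fresh siRNAs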
- Meaning of the calls: active = raised luciferase; inactive = no rise

gene knocked down | reagent no. | total luciferase, z-score | total luciferase, % of control | luciferase per cell, z-score | viable cells, % of control | Call
PLXNA4 | 1 | 0.0459 | 82.8 | 1.05 | 70.1 | inactive
PLXNA4 | 2 | 0.437 | 90.6 | 0.681 | 84.6 | inactive
PLXNA4 | 3 | 0.127 | 84.4 | -0.267 | 101 | inactive
IRAG2 | 1 | -0.179 | 78.3 | -0.0216 | 88 | inactive
IRAG2 | 2 | -0.0629 | 80.6 | -0.0343 | 90.9 | inactive
IRAG2 | 3 | 0.423 | 90.3 | 0.269 | 94 | inactive
IRAG2 | 4 | 0.698 | 95.8 | 0.299 | 98.9 | inactive
IRAG2 | 5 | 1.61 | 114 | 1.76 | 80.1 | inactive
IRAG2 | 6 | -0.0393 | 81.1 | -0.522 | 104 | inactive
MYL9 | 1 | -0.961 | 62.8 | -1.31 | 99.2 | inactive
MYL9 | 2 | -1.28 | 56.4 | -1.07 | 83.5 | inactive
MYL9 | 3 | -0.783 | 66.3 | -1.17 | 101 | inactive
ZHX1 | 1 | -0.86 | 64.8 | 0.324 | 66.5 | inactive
ZHX1 | 2 | -0.243 | 77 | -0.14 | 89.3 | inactive
ZHX1 | 3 | -1.08 | 60.5 | -1.43 | 98.6 | inactive

Reformatted: entries from further up.
PLXNA4 #2
- total luciferase, z-score: 0.437
- total luciferase, % of control: 90.6
- luciferase per cell, z-score: 0.681
- viable cells, % of control: 84.6
- Call: inactive

PLXNA4 #3
- total luciferase, z-score: 0.127
- total luciferase, % of control: 84.4
- luciferase per cell, z-score: -0.267
- viable cells, % of control: 101
- Call: inactive

IRAG2 #1
- total luciferase, z-score: -0.179
- total luciferase, % of control: 78.3
- luciferase per cell, z-score: -0.0216
- viable cells, % of control: 88
- Call: inactive

IRAG2 #2
- total luciferase, z-score: -0.0629
- total luciferase, % of control: 80.6
- luciferase per cell, z-score: -0.0343
- viable cells, % of control: 90.9
- Call: inactive

IRAG2 #3
- total luciferase, z-score: 0.423
- total luciferase, % of control: 90.3
- luciferase per cell, z-score: 0.269
- viable cells, % of control: 94
- Call: inactive

The list goes on.
gene knocked down | reagent no. | total luciferase, z-score | total luciferase, % of control | luciferase per cell, z-score | viable cells, % of control | Call
SSUH2 | 1 | 1.2 | 106 | 0.901 | 93.2 | inactive
SSUH2 | 2 | -2.39 | 34.3 | -2.69 | 77.8 | inactive
SSUH2 | 3 | -0.922 | 63.6 | -0.115 | 73.2 | inactive
PRKAB1 | 1 | 0.253 | 86.9 | 1.1 | 72.8 | inactive
PRKAB1 | 2 | 0.784 | 97.5 | -0.233 | 116 | inactive
PRKAB1 | 3 | -0.458 | 72.8 | -0.42 | 90.8 | inactive
B3GNT7 | 1 | 1.03 | 102 | 0.867 | 91.1 | inactive
B3GNT7 | 2 | -0.234 | 77.2 | 0.511 | 75.4 | inactive
B3GNT7 | 3 | -3.14 | 19.4 | -4.62 | 73.1 | inactive
ZNF337 | 1 | 0.515 | 92.1 | 0.311 | 94.9 | inactive
ZNF337 | 2 | -0.518 | 71.6 | -1.16 | 109 | inactive
ZNF337 | 3 | 2.78 | 137 | 3.06 | 68.4 | inactive
MRPL46 | 1 | 2.99 | 141 | 2.21 | 88.3 | inactive
MRPL46 | 2 | -1.68 | 48.4 | -1.19 | 74 | inactive
MRPL46 | 3 | -0.671 | 68.5 | -0.277 | 82.4 | inactive
C9orf85 | 1 | -0.023 | 81.4 | -0.29 | 98.2 | inactive
C9orf85 | 2 | 4.32 | 168 | 4.12 | 63.3 | active
C9orf85 | 3 | 0.0827 | 83.5 | -0.399 | 104 | inactive
LINC02872 | 1 | -0.335 | 75.2 | -0.635 | 99.4 | inactive
LINC02872 | 2 | -0.629 | 69.4 | -0.0193 | 77.9 | inactive
LINC02872 | 3 | -0.59 | 70.2 | -0.894 | 99.2 | inactive
LGALS8 | 1 | -0.349 | 74.9 | -0.337 | 91.5 | inactive
LGALS8 | 2 | 0.277 | 87.4 | 0.608 | 83.2 | inactive
LGALS8 | 3 | 1.33 | 108 | 1.1 | 90.5 | inactive
